Data from article PMC3646808, “Aggregate-Reactivation Activity of the Molecular Chaperone ClpB from Ehrlichia chaffeensis” (PLoS ONE, 2013).
Results are given in words; binding and its absence hold for the method and conditions named. Some results given as binding are weak or reduced against the parent protein; the word gives no strength. Where a sequence is shown, tags or fusion partners need not be part of it.

Chains of the proteins cited; added tags and fusions are not shown.
UniProt P63284: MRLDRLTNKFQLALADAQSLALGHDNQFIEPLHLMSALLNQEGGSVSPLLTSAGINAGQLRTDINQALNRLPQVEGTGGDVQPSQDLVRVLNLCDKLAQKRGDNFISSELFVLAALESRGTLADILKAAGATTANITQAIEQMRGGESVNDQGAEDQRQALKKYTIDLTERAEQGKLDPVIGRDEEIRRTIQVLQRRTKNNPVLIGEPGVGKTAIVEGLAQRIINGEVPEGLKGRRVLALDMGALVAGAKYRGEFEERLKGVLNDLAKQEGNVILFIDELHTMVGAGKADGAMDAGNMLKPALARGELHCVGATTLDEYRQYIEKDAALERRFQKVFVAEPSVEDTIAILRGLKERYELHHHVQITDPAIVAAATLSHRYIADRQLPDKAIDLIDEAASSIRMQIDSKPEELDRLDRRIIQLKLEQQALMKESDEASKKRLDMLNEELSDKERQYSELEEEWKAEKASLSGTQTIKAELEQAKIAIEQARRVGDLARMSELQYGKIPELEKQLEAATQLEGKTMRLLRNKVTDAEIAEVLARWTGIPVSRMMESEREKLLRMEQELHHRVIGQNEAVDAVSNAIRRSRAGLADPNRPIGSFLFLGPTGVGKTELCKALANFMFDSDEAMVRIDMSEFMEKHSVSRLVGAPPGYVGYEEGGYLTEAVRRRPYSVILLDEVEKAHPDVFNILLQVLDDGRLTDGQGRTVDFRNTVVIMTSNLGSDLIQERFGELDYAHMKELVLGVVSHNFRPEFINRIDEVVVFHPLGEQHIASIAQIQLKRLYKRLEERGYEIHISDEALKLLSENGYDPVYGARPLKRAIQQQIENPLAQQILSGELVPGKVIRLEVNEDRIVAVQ

Experiments:
[1] = target: T1, aggregated glucose-6-phosphate dehydrogenase from Leuconostoc mesenteroides (Leuconostoc mesenteroides) (UniProt P11411); assay: retention with aggregates on a 0.1-µm filter, SDS-PAGE; aggregated G6PDH (16 µM diluted 10-fold) with 1.5 µM ClpB and 6 mM ATPγS in refolding buffer 1, 30°C, 20 min; filter-retained fraction on SDS-PAGE with Coomassie stain; both purified
T1 sequence: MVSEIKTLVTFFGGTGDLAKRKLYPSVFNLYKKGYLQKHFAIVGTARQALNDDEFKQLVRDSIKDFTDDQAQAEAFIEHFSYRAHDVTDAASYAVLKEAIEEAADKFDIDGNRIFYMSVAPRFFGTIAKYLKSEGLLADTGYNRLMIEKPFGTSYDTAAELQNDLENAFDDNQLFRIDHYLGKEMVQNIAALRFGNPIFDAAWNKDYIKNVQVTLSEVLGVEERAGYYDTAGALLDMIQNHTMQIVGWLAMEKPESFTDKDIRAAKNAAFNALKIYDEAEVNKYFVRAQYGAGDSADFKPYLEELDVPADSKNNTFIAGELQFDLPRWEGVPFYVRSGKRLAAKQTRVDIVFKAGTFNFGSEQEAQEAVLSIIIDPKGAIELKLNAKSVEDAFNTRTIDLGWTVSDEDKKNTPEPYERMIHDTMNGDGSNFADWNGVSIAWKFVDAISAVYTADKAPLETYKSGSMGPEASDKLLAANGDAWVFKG

[2] = target: T1, aggregated glucose-6-phosphate dehydrogenase from Leuconostoc mesenteroides (Leuconostoc mesenteroides); assay: retention with aggregates on a 0.1-µm filter, SDS-PAGE; aggregated G6PDH (16 µM diluted 10-fold) with 1.5 µM ClpB and 6 mM AMPPNP in refolding buffer 1, 30°C, 20 min; filter-retained fraction on SDS-PAGE with Coomassie stain; both purified

ClpB from Escherichia coli (from UniProt P63284 1-857)
binding [1]: binds
binding [2]: no binding (condition: with 6 mM AMPPNP)
